The experiment addresses T1, C1s (UniProt P09871).
T1 sequence (looked up): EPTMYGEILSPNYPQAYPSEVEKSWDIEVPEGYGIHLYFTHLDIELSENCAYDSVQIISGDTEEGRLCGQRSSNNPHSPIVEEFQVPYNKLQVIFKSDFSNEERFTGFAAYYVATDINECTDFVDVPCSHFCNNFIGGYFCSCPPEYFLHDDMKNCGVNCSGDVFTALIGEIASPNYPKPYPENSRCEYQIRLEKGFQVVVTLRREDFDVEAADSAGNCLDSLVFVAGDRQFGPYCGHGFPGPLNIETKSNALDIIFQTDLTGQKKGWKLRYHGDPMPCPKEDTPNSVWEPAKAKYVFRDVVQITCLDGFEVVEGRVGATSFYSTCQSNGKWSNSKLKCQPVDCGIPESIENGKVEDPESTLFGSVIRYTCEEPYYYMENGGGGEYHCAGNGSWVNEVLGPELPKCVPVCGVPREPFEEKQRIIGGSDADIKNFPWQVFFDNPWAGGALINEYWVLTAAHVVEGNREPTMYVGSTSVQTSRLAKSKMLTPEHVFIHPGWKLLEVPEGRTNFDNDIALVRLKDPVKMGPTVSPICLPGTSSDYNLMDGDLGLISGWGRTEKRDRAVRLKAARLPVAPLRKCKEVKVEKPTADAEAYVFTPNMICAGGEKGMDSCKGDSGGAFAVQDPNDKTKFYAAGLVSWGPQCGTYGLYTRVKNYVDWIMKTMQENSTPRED
Put plainly: complex-formation assay, SDS-PAGE with Coomassie stain.

These are yes or no findings as the source states them, for the method shown. Some entries that bind do so weakly or less than the wild type.

B1: human plasma-derived C1 inhibitor (C1INH) (protein)
chain: NPNATSSSSQDPESLQDRGEGKVATTVISKMLFVEPILEVSSLPTTNSTTNSATKITANTTDEPTTQPTTEPTTQPTIQPTQPTTQLPTDSPTQPTTGSFCPGPVTLCSDLESHSTEAVLGDALVDFSLKLYHAFSAMKKVETNMAFSPFSIASLLTQVLLGAGENTKTNLESILSYPKDFTCVHQALKGFTTKGVTSVSQIFHSPDLAIRDTFVNASRTLYSSSPRVLSNNSDANLELINTWVAKNTNNKISRLLDSLPSDTRLVLLNAIYLSAKWKTTFDPKKTRMEPFHFKNSVIKVPMMNSKKYPVAHFIDQTLKAKVGQLQLSHNLSLVILVPQNLKHRLEDMEQALSPSVFKAIMEKLEMSKFQPTLLTLPRIKVTTSQDMLSIMEKLEFFDFSYDLNLCGLTEDPDLQVSAMQHQTVLELTETGVEAAAASAISVARTLLVFEVQQPFLFVLWDQQHKFPVFMGRVYDPRA
modifications: natively glycosylated; carries a sialyl Lewis x-related moiety on its N-glycan
As to B1, the binding result is recorded as “binds”.

Values taken from patent publication US20060142187A1.
